# Source: patent US4221705A, “Novel peptide type antibiotic and the process for the production thereof” (priority 1977, dated 1980)
# At least one peptide structure holds a part that was inferred or is arguable (an end, a ring closure or a residue).
# Assays:
# Proteus OX-19 = assay: Antibiotical effects (Dilution method); format: cell-based; conditions: HCl salt
# Candida albicans = assay: Antibiotical effects (Dilution method); format: cell-based; conditions: HCl salt
# Pullularia pullulans = assay: Antibiotical effects (Dilution method); format: cell-based; conditions: HCl salt
# Rhodotorula lupra = assay: Antibiotical effects (Dilution method); format: cell-based; conditions: HCl salt
# [1] = tested on: leukemic ascites cancer cells SN 36; assay: Tumor-inhibiting effects with tumor-carrying mouse, SN 36; format: in vivo, mice of dd origin; conditions: Leukemic ascites cancer cells SN 36 i.p.; 35 mg/kg/day for 10 days in peritoneal cavity; after 60 days
# Mycobacterium H37 RV = assay: Antibiotical effects (Dilution method); format: cell-based; conditions: HCl salt
# [2] = tested on: ascites livercancer cells AH 44; assay: Tumor-inhibiting effects with tumor carrying rats, AH 44; format: in vivo, rats of Donryu origin; conditions: AH 44 in tail vein, 30 mg/kg orally, 10 times from 72 hours, after 60 days
# Bacillus subtilis = assay: Antibiotical effects (Dilution method); format: cell-based; conditions: HCl salt
# interferon in blood = assay: Interferone inducer-like effects in mouse
# trichomonas waginalis = assay: Antibiotical effects (Dilution method); format: cell-based; conditions: HCl salt
# Candida utilis = assay: Antibiotical effects (Dilution method); format: cell-based; conditions: HCl salt
# [3] = tested on: Candida micro-organisms and other yeasts; assay: Antibiotical effects, summary for Candida and other yeasts; format: cell-based; conditions: summary of the dilution method table
# Bacillus mycoides = assay: Antibiotical effects (Dilution method); format: cell-based; conditions: HCl salt
# Candida krusei = assay: Antibiotical effects (Dilution method); format: cell-based; conditions: HCl salt
# Mycobacterium Smegmatis = assay: Antibiotical effects (Dilution method); format: cell-based; conditions: HCl salt
# Mycobacterium cymote = assay: Antibiotical effects (Dilution method); format: cell-based; conditions: HCl salt
# [4] = tested on: Saccharomyces cerevisiae Br-60; assay: Antibiotical effects (Dilution method); format: cell-based; conditions: HCl salt
# Candida guilliermondii = assay: Antibiotical effects (Dilution method); format: cell-based; conditions: HCl salt
# Mycotorula = assay: Antibiotical effects (Dilution method); format: cell-based; conditions: HCl salt
# [5] = tested on: Staphylococcus aureus 209-P; assay: Antibiotical effects (Dilution method); format: cell-based; conditions: HCl salt
# interferon = assay: Interferone inducing effects in other animals; format: in vivo; conditions: domestic fowl, rabbit, dog, swine, etc.
# Willia anomala = assay: Antibiotical effects (Dilution method); format: cell-based; conditions: HCl salt
# Bacillus lutea Hata = assay: Antibiotical effects (Dilution method); format: cell-based; conditions: HCl salt
# Zygosaccharomyces salsus = assay: Antibiotical effects (Dilution method); format: cell-based; conditions: HCl salt
# Escherichia coli = assay: Antibiotical effects (Dilution method); format: cell-based; conditions: HCl salt
# Trichohyton lpulam = assay: Antibiotical effects (Dilution method); format: cell-based; conditions: HCl salt
# Torulaspora delbruckii = assay: Antibiotical effects (Dilution method); format: cell-based; conditions: HCl salt
# Shigella sonnei = assay: Antibiotical effects (Dilution method); format: cell-based; conditions: HCl salt
# Candida tropicalis = assay: Antibiotical effects (Dilution method); format: cell-based; conditions: HCl salt
# [6] = tested on: ascites livercancer cells AH 66; assay: Tumor-inhibiting effects with tumor carrying rats, AH 66; format: in vivo, rats of Donryu origin; conditions: AH 66 in tail vein, 30 mg/kg orally, 10 times from 72 hours, after 60 days
# [7] = tested on: Ehrlich's ascites cancer cells; assay: Tumor-inhibiting effects with tumor-carrying mouse, Ehrlich; format: in vivo, mice of dd origin; conditions: Ehrlich's ascites cancer cells i.p.; 35 mg/kg/day for 10 days in peritoneal cavity; after 60 days
# [8] = tested on: immune system (antibody values in blood against SRBC); assay: Effects against the immune system: hemolysine titer method by SRBC administration; format: in vivo, mice of ddI origin
# [9] = tested on: Candida pseudo-tropicalis; assay: Antibiotical effects (Dilution method); format: cell-based; conditions: HCl salt
# sarcoma cells S-180 = assay: Tumor-inhibiting effects with tumor-carrying mouse, S-180; format: in vivo, mice of dd origin; conditions: Sarcoma cells S-180 i.p.; 35 mg/kg/day for 10 days in peritoneal cavity; after 60 days
# Trichohyton asteroide = assay: Antibiotical effects (Dilution method); format: cell-based; conditions: HCl salt
# [10] = tested on: Saccharomyces rouxii bottlucue; assay: Antibiotical effects (Dilution method); format: cell-based; conditions: HCl salt
# Debaryomyces kloecheri = assay: Antibiotical effects (Dilution method); format: cell-based; conditions: HCl salt
compound,measurement,setting,value
"C[C@@H](O)[C@H](NC(=O)[C@@H](CCCN)NC(=O)[C@H](CC(O)CNC(=N)N)NC(=O)[C@@H](N)CCCNC(=N)N)C(=O)N[C@H](CCCN)C(=O)N[C@@H](CC(O)CNC(=N)N)C(=O)N[C@H](Cc1ccc(O)cc1)C(=O)O (single isomer, unassigned) [L-ARG--L-(ARG(OH)--D-ORN--L-THR--D-ORN--L-ARG(OH)--D-TYR]",Minimum growth inhibiting concentration,Proteus OX-19,40 mc g/ml
same,Minimum growth inhibiting concentration,Candida albicans,0.4 mc g/ml
same,Minimum growth inhibiting concentration,Pullularia pullulans,0.4 mc g/ml
same,Minimum growth inhibiting concentration,Rhodotorula lupra,0.4 mc g/ml
same,Existence Rate of Mice,[1],70%
same,Minimum growth inhibiting concentration,Mycobacterium H37 RV,> 1000 mc g/ml
same,Existence Rate,[2],50%
same,Minimum growth inhibiting concentration,Bacillus subtilis,> 100 mc g/ml
same,induction of interferon in blood,interferon in blood; administrated in a living body,induces higher units of interferon in blood
same,time of maximum interferone titer in the blood,"interferon in blood; mouse, 2.5 mg/kg orally",25 h
same,maximum interferone titer in the blood,"interferon in blood; mouse, 2.5 mg/kg orally, after 25 hours",1280 Dilution units
same,Minimum growth inhibiting concentration,trichomonas waginalis,> 1000 mc g/ml
same,Minimum growth inhibiting concentration,Candida utilis,0.4 mc g/ml
same,antibiotical activity against Candida micro-organisms and other yeasts,[3],strong antibiotical activity
same,Minimum growth inhibiting concentration,Bacillus mycoides,> 100 mc g/ml
same,Minimum growth inhibiting concentration,Candida krusei,0.4 mc g/ml
same,Minimum growth inhibiting concentration,Mycobacterium Smegmatis,> 1000 mc g/ml
same,Minimum growth inhibiting concentration,Mycobacterium cymote,> 1000 mc g/ml
same,Minimum growth inhibiting concentration,[4],0.4 mc g/ml
same,Minimum growth inhibiting concentration,Candida guilliermondii,0.4 mc g/ml
same,Minimum growth inhibiting concentration,Mycotorula,0.4 mc g/ml
same,Minimum growth inhibiting concentration,[5],> 100 mc g/ml
same,interferone inducing effects in other animals,interferon,also recognized
same,Minimum growth inhibiting concentration,Willia anomala,0.4 mc g/ml
same,Minimum growth inhibiting concentration,Bacillus lutea Hata,> 100 mc g/ml
same,Minimum growth inhibiting concentration,Zygosaccharomyces salsus,0.4 mc g/ml
same,Minimum growth inhibiting concentration,Escherichia coli,> 100 mc g/ml
same,Minimum growth inhibiting concentration,Trichohyton lpulam,> 1000 mc g/ml
same,Minimum growth inhibiting concentration,Torulaspora delbruckii,0.4 mc g/ml
same,Minimum growth inhibiting concentration,Shigella sonnei,> 100 mc g/ml
same,Minimum growth inhibiting concentration,Candida tropicalis,0.4 mc g/ml
same,Existence Rate,[6],40%
same,Existence Rate of Mice,[7],80%
same,antibody value based on the control,"[8]; 2.5 mg/kg per day intraperitoneally, 4 days before and 4 days after SRBC",234%
same,antibody value based on the control group,"[8]; 25 mg/kg per day intraperitoneally, 4 days before and 4 days after SRBC",77%
same,effects against the immune system in the hemolysine titer method,[8]; SRBC administration,both accelerating and inhibiting effects
same,Minimum growth inhibiting concentration,[9],0.4 mc g/ml
same,Existence Rate of Mice,sarcoma cells S-180,90%
same,Minimum growth inhibiting concentration,Trichohyton asteroide,> 1000 mc g/ml
same,Minimum growth inhibiting concentration,[10],"0,4 mc g/ml"
same,Minimum growth inhibiting concentration,Debaryomyces kloecheri,0.4 mc g/ml
"C[C@@H](O)[C@H](NC(=O)[C@@H](CCCN)NC(=O)[C@H](CC(O)CNC(=N)N)NC(=O)[C@@H](N)CCCNC(=N)N)C(=O)N[C@H](CCCN)C(=O)N[C@@H](CCCCN)C(=O)N[C@H](Cc1ccc(O)cc1)C(=O)O (single isomer, unassigned) [L-ARG--L-ARG(OH)--D-ORN--L-THR--D-ORN--L-Lys--D-TYR]",Minimum growth inhibiting concentration,Mycobacterium H37 RV,> 1000 mc g/ml
same,Minimum growth inhibiting concentration,Bacillus mycoides,> 100 mc g/ml
same,Minimum growth inhibiting concentration,Mycobacterium cymote,> 1000 mc g/ml
same,Minimum growth inhibiting concentration,Shigella sonnei,> 100 mc g/ml
